Experimental data: PubChem BioAssay AID1259308 (NCATS, 2017)

- Aim: 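Knock-downs that increase output of a recombinant reporter protein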 (primary screen)
- Cell system: human HEK293 embryonic kidney cells stably expressing firefly luciferase (HEK-CMV-Luc2-Hygro)
- Reagent: single siRNA against human genes, 0.8 pmol siRNA per well
- Timing: 72 h
- Measurement: 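Reporter luminescence and viable-cell signal on separate replicate plates, given as percent of non-targeting control and median/MAD z-scores, plus per-cell luciferase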
- Reading the numbers: total luciferase, z-score and total luciferase, % of control: higher = more reporter protein produced
- Call rule: 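Active when the median/MAD z-score for overall luciferase is greater than 3; a gene was taken forward for validation with new siRNAs if at least two of its three siRNAs passed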
- Calls: active = raised luciferase; inactive = no rise
The deposit covers about 59,000 reagents; shown is a random part of them. In the full data, about 1,510 (2.6%) are marked active. 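Calls use total luciferase alone and ignore viability, so some active siRNAs may act by altering cell number.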 Unmarked entries are inactive. Reagents against one gene are numbered here. Not all columns of the deposit are shown.

For CATSPERG (catsper channel auxiliary subunit gamma) #1, the entry reads total luciferase, z-score 1.25; total luciferase, % of control 107.
With knock-down of CATSPERG (catsper channel auxiliary subunit gamma) #2, the screen gave total luciferase, z-score 0.467; total luciferase, % of control 91.2.
After knock-down of CATSPERG (catsper channel auxiliary subunit gamma) #3 the results were total luciferase, z-score 0.265; total luciferase, % of control 87.2.
Silencing of EPHA6 (EPH receptor A6) #1 gave: total luciferase, z-score -0.176; total luciferase, % of control 78.4.
For EPHA6 (EPH receptor A6) #2, the values are total luciferase, z-score -0.432; total luciferase, % of control 73.3.
EPHA6 (EPH receptor A6) #3 gave total luciferase, z-score -0.516; total luciferase, % of control 71.6.
For SYF2 (SYF2 pre-mRNA splicing factor) #1 the deposit lists total luciferase, z-score -1.3; total luciferase, % of control 56.1.
Silencing of SYF2 (SYF2 pre-mRNA splicing factor) #2 gave: total luciferase, z-score -0.691; total luciferase, % of control 68.1.
For SYF2 (SYF2 pre-mRNA splicing factor) #3, the entry reads total luciferase, z-score 0.457; total luciferase, % of control 91.
DYNLL1 (dynein light chain LC8-type 1) #1 scored total luciferase, z-score -0.315; total luciferase, % of control 75.6.
Depletion of DYNLL1 (dynein light chain LC8-type 1) #2 came out at: total luciferase, z-score 0.846; total luciferase, % of control 98.7.
DYNLL1 (dynein light chain LC8-type 1) #3 showed total luciferase, z-score 2.47; total luciferase, % of control 131.

An excerpt taken from the entries so far, for reference:
EPHA6 (EPH receptor A6) #2 → total luciferase, z-score: -0.432; total luciferase, % of control: 73.3
EPHA6 (EPH receptor A6) #3 → total luciferase, z-score: -0.516; total luciferase, % of control: 71.6
SYF2 (SYF2 pre-mRNA splicing factor) #1 → total luciferase, z-score: -1.3; total luciferase, % of control: 56.1

The listing continues:
With knock-down of MRTFA (myocardin related transcription factor A) #1, the screen gave total luciferase, z-score 5.54 (active); total luciferase, % of control 192.
With knock-down of MRTFA (myocardin related transcription factor A) #2, the screen gave total luciferase, z-score 1.21; total luciferase, % of control 106.
Depletion of MRTFA (myocardin related transcription factor A) #3 resulted in: total luciferase, z-score 0.318; total luciferase, % of control 88.2.
After knock-down of RPL37AP8 (ribosomal protein L37a pseudogene 8) #1 the results were total luciferase, z-score -0.519; total luciferase, % of control 71.6.
Against RPL37AP8 (ribosomal protein L37a pseudogene 8) #2, the entry reads total luciferase, z-score 0.0882; total luciferase, % of control 83.6.
RPL37AP8 (ribosomal protein L37a pseudogene 8) #3 gave total luciferase, z-score 1.04; total luciferase, % of control 103.
For SETX (senataxin) #1 the deposit lists total luciferase, z-score 0.265; total luciferase, % of control 87.2.
Silencing of SETX (senataxin) #2 came out at: total luciferase, z-score 0.169; total luciferase, % of control 85.3.
With knock-down of SETX (senataxin) #3, the record shows total luciferase, z-score 0.888; total luciferase, % of control 99.5.
Against HMX1 (H6 family homeobox 1) #1 the deposit lists total luciferase, z-score 0.118; total luciferase, % of control 84.2.
With knock-down of HMX1 (H6 family homeobox 1) #2, the screen gave total luciferase, z-score -0.428; total luciferase, % of control 73.4.
HMX1 (H6 family homeobox 1) #3 showed total luciferase, z-score 1.48; total luciferase, % of control 111.
OTP (orthopedia homeobox) #1 showed total luciferase, z-score 0.631; total luciferase, % of control 94.4.
For OTP (orthopedia homeobox) #2, the values are total luciferase, z-score -0.14; total luciferase, % of control 79.1.
For OTP (orthopedia homeobox) #3, the values are total luciferase, z-score 0.373; total luciferase, % of control 89.3.
For SGF29 (SAGA complex associated factor 29) #1 the deposit lists total luciferase, z-score 1.21; total luciferase, % of control 106.
After knock-down of SGF29 (SAGA complex associated factor 29) #2, the record shows total luciferase, z-score 0.813; total luciferase, % of control 98.1.
For SGF29 (SAGA complex associated factor 29) #3, the entry reads total luciferase, z-score 2.34; total luciferase, % of control 128.
For TGFB1I1 (transforming growth factor beta 1 induced transcript 1) #1, the entry reads total luciferase, z-score 0.954; total luciferase, % of control 101.
TGFB1I1 (transforming growth factor beta 1 induced transcript 1) #2 showed total luciferase, z-score 0.674; total luciferase, % of control 95.3.
Against TGFB1I1 (transforming growth factor beta 1 induced transcript 1) #3 the deposit lists total luciferase, z-score 0.55; total luciferase, % of control 92.8.
